Primary screen of a compound library

Sequences of proteins named here, by UniProt entry; tags and fusion partners are left off.
UniProt I6X8D2, whole entry: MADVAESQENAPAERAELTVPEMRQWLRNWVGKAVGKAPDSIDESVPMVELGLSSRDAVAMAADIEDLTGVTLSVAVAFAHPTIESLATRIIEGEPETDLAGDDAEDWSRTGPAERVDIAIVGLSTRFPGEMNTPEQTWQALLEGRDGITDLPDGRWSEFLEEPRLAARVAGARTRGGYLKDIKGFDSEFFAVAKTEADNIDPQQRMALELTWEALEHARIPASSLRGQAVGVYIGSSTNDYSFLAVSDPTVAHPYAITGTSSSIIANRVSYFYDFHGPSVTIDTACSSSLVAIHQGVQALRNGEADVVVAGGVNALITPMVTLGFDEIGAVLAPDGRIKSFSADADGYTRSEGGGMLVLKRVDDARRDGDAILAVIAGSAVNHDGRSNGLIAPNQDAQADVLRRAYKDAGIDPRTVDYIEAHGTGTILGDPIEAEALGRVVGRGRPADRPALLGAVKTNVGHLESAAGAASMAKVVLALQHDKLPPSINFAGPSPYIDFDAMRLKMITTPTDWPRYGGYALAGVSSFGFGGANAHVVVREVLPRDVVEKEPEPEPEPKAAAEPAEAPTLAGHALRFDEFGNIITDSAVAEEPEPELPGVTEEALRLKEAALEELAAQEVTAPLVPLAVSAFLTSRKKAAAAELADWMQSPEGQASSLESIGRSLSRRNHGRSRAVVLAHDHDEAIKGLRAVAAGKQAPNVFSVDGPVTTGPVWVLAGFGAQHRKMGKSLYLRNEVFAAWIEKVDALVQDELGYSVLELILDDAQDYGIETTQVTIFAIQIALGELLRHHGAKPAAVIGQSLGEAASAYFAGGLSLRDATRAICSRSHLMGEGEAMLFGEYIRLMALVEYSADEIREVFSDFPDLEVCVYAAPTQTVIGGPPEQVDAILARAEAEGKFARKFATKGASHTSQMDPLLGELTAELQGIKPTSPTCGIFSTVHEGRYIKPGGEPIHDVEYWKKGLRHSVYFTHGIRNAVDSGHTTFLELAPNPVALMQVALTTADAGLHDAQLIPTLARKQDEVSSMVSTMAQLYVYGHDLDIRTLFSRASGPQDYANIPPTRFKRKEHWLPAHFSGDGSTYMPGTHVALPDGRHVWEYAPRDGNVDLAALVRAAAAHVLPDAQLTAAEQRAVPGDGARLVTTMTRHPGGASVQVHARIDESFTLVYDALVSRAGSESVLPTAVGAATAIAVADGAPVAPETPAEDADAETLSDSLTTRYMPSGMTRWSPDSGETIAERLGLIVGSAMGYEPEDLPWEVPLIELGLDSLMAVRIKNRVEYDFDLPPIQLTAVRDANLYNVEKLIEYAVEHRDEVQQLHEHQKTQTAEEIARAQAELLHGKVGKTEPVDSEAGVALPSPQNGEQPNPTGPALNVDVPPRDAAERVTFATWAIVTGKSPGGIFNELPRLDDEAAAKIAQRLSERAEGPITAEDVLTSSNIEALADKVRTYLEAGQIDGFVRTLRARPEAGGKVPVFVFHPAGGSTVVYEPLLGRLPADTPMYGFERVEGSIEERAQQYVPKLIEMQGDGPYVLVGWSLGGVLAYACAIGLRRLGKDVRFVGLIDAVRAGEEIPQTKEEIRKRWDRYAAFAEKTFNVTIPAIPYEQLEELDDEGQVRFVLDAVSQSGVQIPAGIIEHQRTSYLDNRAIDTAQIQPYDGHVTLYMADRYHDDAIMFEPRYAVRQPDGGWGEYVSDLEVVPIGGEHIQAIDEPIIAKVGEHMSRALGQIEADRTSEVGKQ
UniProt P9WNZ1, whole entry: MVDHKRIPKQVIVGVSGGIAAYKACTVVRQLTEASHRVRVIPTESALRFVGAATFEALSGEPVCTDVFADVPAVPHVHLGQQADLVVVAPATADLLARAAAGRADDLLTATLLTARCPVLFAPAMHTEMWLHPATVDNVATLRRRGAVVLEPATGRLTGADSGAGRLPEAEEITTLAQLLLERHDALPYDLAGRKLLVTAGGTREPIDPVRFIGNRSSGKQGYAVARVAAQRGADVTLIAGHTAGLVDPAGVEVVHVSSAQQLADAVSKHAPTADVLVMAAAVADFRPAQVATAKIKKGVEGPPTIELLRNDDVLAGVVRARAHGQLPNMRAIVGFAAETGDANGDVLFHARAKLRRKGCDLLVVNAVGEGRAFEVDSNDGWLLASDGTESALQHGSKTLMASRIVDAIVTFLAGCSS
UniProt P9WPC5, whole entry: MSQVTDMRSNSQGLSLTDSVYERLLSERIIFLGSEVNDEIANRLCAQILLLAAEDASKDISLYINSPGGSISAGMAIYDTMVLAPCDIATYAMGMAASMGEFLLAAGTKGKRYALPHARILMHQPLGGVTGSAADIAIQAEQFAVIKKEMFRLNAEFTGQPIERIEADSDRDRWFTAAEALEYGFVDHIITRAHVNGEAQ
UniProt P9WPC3, whole entry partner: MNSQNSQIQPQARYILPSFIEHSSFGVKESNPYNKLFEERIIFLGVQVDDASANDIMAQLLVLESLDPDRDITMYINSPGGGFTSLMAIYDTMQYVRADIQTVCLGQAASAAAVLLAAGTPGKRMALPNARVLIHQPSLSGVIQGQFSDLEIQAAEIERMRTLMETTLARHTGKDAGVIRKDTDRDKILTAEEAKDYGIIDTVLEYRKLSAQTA
UniProt P9WFT3, whole entry: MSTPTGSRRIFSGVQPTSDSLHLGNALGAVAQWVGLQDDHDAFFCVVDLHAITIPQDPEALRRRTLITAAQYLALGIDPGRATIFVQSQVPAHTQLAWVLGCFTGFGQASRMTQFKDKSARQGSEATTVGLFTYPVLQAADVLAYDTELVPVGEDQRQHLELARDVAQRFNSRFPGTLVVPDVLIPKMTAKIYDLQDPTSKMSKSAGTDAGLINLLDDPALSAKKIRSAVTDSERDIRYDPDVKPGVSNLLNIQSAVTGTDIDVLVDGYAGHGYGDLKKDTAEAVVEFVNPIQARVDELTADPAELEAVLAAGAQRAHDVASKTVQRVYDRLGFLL

From ChEMBL document CHEMBL3988442, “University of Dundee, Small-Polar-MMV Screening Library” (2021).

Pks13 thioesterase: 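Enzyme assay of the thioesterase domain of polyketide synthase 13; the read-out is not stated. Target: Polyketide synthase Pks13, Mycobacterium tuberculosis (UniProt I6X8D2). Tested at 30 µM. The record gives no direction; the compounds picked for IC50 retests had high values, so higher reads as stronger inhibition. Of about 67,000 compounds tested this way, about 300 (0.46%) reached 50% or more in at least one test.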
Toxoplasma: 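Assay of Toxoplasma gondii numbers, read through their beta-galactosidase reporter with a colour substrate. Concentration: 10 µM. The record gives no direction; the compounds picked for IC50 retests had high values, so higher reads as fewer parasites. Size under these conditions: about 67,000 compounds, about 260 of them at 50% or above in at least one test.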
CoaBC: 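Coenzyme A biosynthesis protein CoaBC, Mycobacterium tuberculosis (UniProt P9WNZ1). Enzyme assay of CoaBC with a phosphate dye (Biomol Green) read at 650 nm. Tested at 30 µM. Direction is inferred from only a few compounds that gave an IC50; most scored high, so higher reads as stronger inhibition. Most strong results did not repeat in a second test. Of about 67,000 compounds tested this way, about 40 (0.06%) reached 50% or more in at least one test.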
ClpP1P2: 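Protease assay of ClpP1P2, read by the AMC dye that it sets free. Target: ClpP1P2, Mycobacterium tuberculosis (UniProt P9WPC5 and UniProt P9WPC3). Compounds at 50 µM. Direction is inferred from only a few compounds that gave an IC50; most scored high, so higher reads as stronger inhibition. Most other retested compounds had strongly negative values. About 69,000 compounds were tested under these conditions; 0.015% (about 10) showed 50% or more at least once.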
Leishmania in macrophages: 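Cell assay of Leishmania donovani living inside macrophages; the read-out is not stated. Concentration: 30 µM. Higher reads as stronger inhibition (inferred: compounds with an IC50 in retests scored well above the rest). Of about 69,000 compounds tested this way, about 1,000 (1.5%) reached 50% or more in at least one test.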
MtTrpRS: 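Enzyme assay of tryptophanyl-tRNA synthetase; the read-out is not stated. Target: Tryptophan-tRNA ligase, Mycobacterium tuberculosis (UniProt P9WFT3). Concentration: 10 µM. Higher most likely means stronger inhibition; the record gives no direction and few retests gave an IC50. Of about 65,000 compounds tested this way, about 64 (0.098%) reached 50% or more in at least one test.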

The filed quantity is “Percent Effect” (%). The controls that fix the scale are not given in the record; negative values are as filed. This is an unselected part of the compounds tested. Two or more numbers in one place are separate tests of the same structure; such repeats can differ widely. A dash means the value is not listed here; it may have been measured.

SMILES	Pks13 thioesterase	Toxoplasma	CoaBC	ClpP1P2	Leishmania in macrophages	MtTrpRS
CCOc1cccc(NC(=O)c2cscn2)n1	-29.83%	5.137%	-	-1.89%	3.751%	-0.2064%
Fc1ccc2c(c1)C1(CCNCC1)CC2OCC1CC1 (stereo not drawn)	-32.92%	9.255%	-42.74%	10.13%	25.76% & 22.91%	1.195%
CCC1=NC(SCC(=O)c2ccc(C)cc2)c2cc(CC)sc2N1 (stereo not drawn)	-5.063%	65.66%	-7.621%	7.759%	-35.99%	3.368%
O=C(c1ccc(=O)[nH]n1)N1CCC(CN2CCOCC2)CC1	-20.24%	6.809%	-0.8872%	-3.369%	5.126%	0.2987%
CN(C)C(=O)N1Cc2ncn(C)c2C(COCC2CCOCC2)C1 (stereo not drawn)	-	-	3.299%	-6.126%	-	-4.527%
Cn1cc(C2CN(C(=O)Cc3coc(-c4ccccc4)n3)CCO2)cn1 (stereo not drawn)	-18.81%	4.26%	0.3654%	-7.466%	1.481%	0.2863%
O=C(O)C(F)(F)F.c1csc(CN2Cc3nccn3CC(Cn3cncn3)C2)n1 (stereo not drawn)	-	9.866%	-	-	-10.34%	-
Cc1ccc(CN2CCC[C@]3(C(=O)O)CN(C)C[C@@H]3C2)s1	1.612%	-	4.444%	-5.253%	-	-
O=C(NCC1Cn2nnc(-c3ccoc3)c2CO1)c1ccc[nH]1 (stereo not drawn)	1.417%	4.816%	-12.61%	-0.4556%	32.5%	-3.139%
COCC(=O)Nc1cc(S(=O)(=O)C(F)(F)F)ccc1OC	-8.234%	-2.245%	4.43%	1.453%	-10.59%	3.972%
CCN1CC(COC(=O)c2cccc(Br)c2)CC1=O (stereo not drawn)	-10.75%	-2.509%	3.571%	-0.7928%	4.542%	-5.882%
CCOCCC(=O)N1CCCCC1CCn1cccn1 (stereo not drawn)	-22.8%	-0.437%	-5.652%	0.4414%	24.7%	-1.83%
N#Cc1ccccc1CN1CCCCC1Cn1cncn1 (stereo not drawn)	2.03%	0.6318%	0.3559%	1.457%	23.72%	-4.147%
CN1CCN(C(=O)c2cccc(S(=O)(=O)NCC3(C)COC3)c2)CC1	-12.27%	-0.08654%	-4.472%	-6.394%	33.44%	0%
Cc1ccc(CNC(=O)C2CCN(C(=O)c3ccccc3)CC2)n1C	-5.645%	-2.086%	4.126%	3.949%	-7.477%	4.046%
Cc1nc(N2CCOCC2)nc2c1CN(CC(=O)N(C)C)CC2	0.0869%	-11.89%	5.068%	-0.9504%	5.703%	-4.928%
Cc1cccc(CNCc2c(C(C)C)nn(C)c2N2CCOCC2)n1	-11.78%	-3.284%	-6.61%	-5.779%	15.25%	4.918%
O=C(O)C(F)(F)F.[H][C@@]12OCCN(CC3CC3)[C@@]1([H])CC[C@H]2OC	-	3.968%	-	-	-47.48%	-
CS(=O)(=O)c1ccc(OCCNCc2cccc(F)c2)cc1	-20.26%	3.624%	-1.075%	-4.7%	22.41%	-0.5757%
CC(c1nccs1)N(C)C(=O)c1cc(CN(C)Cc2ccccc2)on1 (stereo not drawn)	-16.53%	0.4369%	-3.776%	2.734%	13.49%	1.145%
COc1cccc(CNCc2ccccc2Cl)c1O	8.071%	13.92%	-25%	-3.174%	11.74%	5.583%
Cc1ccccc1SC1CCN(C(=O)C2CNC(=O)N2)CC1 (stereo not drawn)	-6.72%	-6.052%	6.79%	-7.363%	-12.93%	2.918%
COc1cccc(-c2nc(CC(=O)NC3(C)CCS(=O)(=O)C3)cs2)c1 (stereo not drawn)	-6.622%	23.41%	-0.2525%	0.972%	5.185%	-5.112%
CCC(CNC(=O)Nc1cnn(CC)c1)N1CCc2ccccc2C1 (stereo not drawn)	-40.09%	-2.61%	1.567%	-53.92%	16.04%	-1.755%
Cc1cnc(CN(C)C2CCCN(Cc3noc(C4CC4)n3)C2)cn1 (stereo not drawn)	-19.16%	10.44%	1.956%	9.239%	-9.25%	2.652%
Cc1nccn1CC1CCCN(S(=O)(=O)c2cnn(C)c2)C1 (stereo not drawn)	6.104%	-5.915%	10.67%	-3.451%	12.01%	-3.039%
Cc1nccc(C(=O)NC(CN2CCCC2=O)c2ccccc2)n1 (stereo not drawn)	-6.905%	-33.93%	6.971%	-19.1%	15.46%	-0.9416%
CCc1nc(C2CCCN2C(=O)c2csc(NC(C)=O)n2)no1 (stereo not drawn)	1.705%	1.804%	6.591%	-20.42%	-14.79%	0.000006%
CCCS(=O)(=O)N1Cc2nccn2CC(Cn2cccn2)C1 (stereo not drawn)	-24.41%	11.07%	-2.804%	0.7844%	28.39%	-3.993%
O=C(O)C(F)(F)F.O=C(O)C(F)(F)F.[H][C@@]12CN(Cc3cccs3)C[C@@]1([H])N(Cc1cccnc1)C(=O)CO2	-	6.005%	-	-	19.04%	-
Cn1nccc1C(=O)N1CCC2(CC1)COC(COc1ccccn1)C2 (stereo not drawn)	-2.048%	-	-1.681%	10.55%	-	-1.395%
Cc1cccc(NC(=O)N2CCCn3cnc(CN(C)C(C)C)c3C2)c1	-	-	1.713%	7.276%	-	9.16%
CC(C)NC(=O)NCc1nnc2n1C(C(=O)N(C)C)CC2 (stereo not drawn)	-6.052%	-7.591%	-4.474%	-7.913%	10.14%	-0.2593%
Cc1cnn(CC2CN(CC(=O)Nc3nccs3)CCO2)c1 (stereo not drawn)	-6.067%	2.319%	0.2558%	-36.08%	1.491%	-5.408%
CNC(=O)c1nc(CN2CCOC(C(F)(F)F)C2)no1 (stereo not drawn)	-1.935%	12.29%	-10.53%	16.25%	8.823%	69.62%
CN1CC(=O)N(c2ccccc2)Cc2c(NC3CC3)ncnc21	-8.041%	3.156%	5.263%	1.611%	2.335%	-3.889%
[H][C@]12CN(CC3CC3)C(=O)[C@@]1([H])CN(c1ncc(F)cn1)C2	-	8.966%	-	-	3.224%	-
Cc1cc(S(=O)(=O)NCc2cccc(C(=O)N3CCCC3)c2)c(C)s1	-88.64%	2.185%	10.77%	7.239%	13.42%	0.7037%
[H][C@]12CC[C@]([H])(CN(Cc3ccccc3C#N)C1)N(CC1CCC1)C2=O	-	7.948%	-	-	-4.627%	-
O=C(c1ccco1)N1CCO[C@@H]2CN(Cc3nccs3)CC[C@@H]2C1	-4.936%	-	0.7426%	-8.353%	-	-
O=C(C1CCCO1)N1CC[C@@H]2CN(Cc3ccccc3)S(=O)(=O)[C@@H]2CC1 (stereo partly drawn)	-36.38%	-	-	-2.626%	-	-1.618%
CN(C)C(=O)C1CCCN1CCCNC(=O)c1ccccc1Cl (stereo not drawn)	9.446%	-25.48%	4.684%	-7.454%	10.77%	0%

Repeated from the top, 3 entries:

{"smiles": "CCOc1cccc(NC(=O)c2cscn2)n1", "Pks13 thioesterase": -29.83, "Toxoplasma": 5.137, "ClpP1P2": -1.89, "Leishmania in macrophages": 3.751, "MtTrpRS": -0.2064}
{"smiles": "Fc1ccc2c(c1)C1(CCNCC1)CC2OCC1CC1", "stereo": "stereo not drawn", "Pks13 thioesterase": -32.92, "Toxoplasma": 9.255, "CoaBC": -42.74, "ClpP1P2": 10.13, "Leishmania in macrophages": "25.76 & 22.91", "MtTrpRS": 1.195}
{"smiles": "CCC1=NC(SCC(=O)c2ccc(C)cc2)c2cc(CC)sc2N1", "stereo": "stereo not drawn", "Pks13 thioesterase": -5.063, "Toxoplasma": 65.66, "CoaBC": -7.621, "ClpP1P2": 7.759, "Leishmania in macrophages": -35.99, "MtTrpRS": 3.368}